The supplement of paper PMC6411743
± gives the standard deviation of the averaged measurements. The list shows a part of the results.

Amino acid sequences for entries named in this document (tags omitted). A change or cut given only in a name is not applied to a line headed by its entry.
UniProt P37802: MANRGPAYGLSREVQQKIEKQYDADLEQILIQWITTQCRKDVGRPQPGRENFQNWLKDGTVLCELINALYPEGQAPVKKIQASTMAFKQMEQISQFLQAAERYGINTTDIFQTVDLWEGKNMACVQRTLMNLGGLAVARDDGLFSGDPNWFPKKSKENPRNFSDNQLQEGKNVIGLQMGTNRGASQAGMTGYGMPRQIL
UniProt P49721: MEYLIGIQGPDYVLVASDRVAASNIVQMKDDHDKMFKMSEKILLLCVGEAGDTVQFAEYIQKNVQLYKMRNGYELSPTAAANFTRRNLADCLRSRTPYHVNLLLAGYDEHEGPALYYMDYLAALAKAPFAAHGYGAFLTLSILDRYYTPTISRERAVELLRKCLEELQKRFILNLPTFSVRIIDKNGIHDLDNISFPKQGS
UniProt P30084: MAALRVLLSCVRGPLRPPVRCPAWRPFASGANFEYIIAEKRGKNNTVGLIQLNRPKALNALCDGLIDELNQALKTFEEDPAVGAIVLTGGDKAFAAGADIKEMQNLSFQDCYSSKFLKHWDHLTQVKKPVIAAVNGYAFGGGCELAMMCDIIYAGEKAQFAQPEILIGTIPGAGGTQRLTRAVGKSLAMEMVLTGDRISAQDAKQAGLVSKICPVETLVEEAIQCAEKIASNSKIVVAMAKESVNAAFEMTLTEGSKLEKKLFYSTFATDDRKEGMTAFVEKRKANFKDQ
UniProt P49427: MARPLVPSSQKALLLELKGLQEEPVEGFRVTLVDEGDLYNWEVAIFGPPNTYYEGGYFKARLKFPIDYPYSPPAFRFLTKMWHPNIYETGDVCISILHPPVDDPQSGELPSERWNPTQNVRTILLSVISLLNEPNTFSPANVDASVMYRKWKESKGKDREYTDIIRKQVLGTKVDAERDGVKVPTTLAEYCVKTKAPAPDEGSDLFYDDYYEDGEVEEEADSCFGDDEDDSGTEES
UniProt P27694, whole entry: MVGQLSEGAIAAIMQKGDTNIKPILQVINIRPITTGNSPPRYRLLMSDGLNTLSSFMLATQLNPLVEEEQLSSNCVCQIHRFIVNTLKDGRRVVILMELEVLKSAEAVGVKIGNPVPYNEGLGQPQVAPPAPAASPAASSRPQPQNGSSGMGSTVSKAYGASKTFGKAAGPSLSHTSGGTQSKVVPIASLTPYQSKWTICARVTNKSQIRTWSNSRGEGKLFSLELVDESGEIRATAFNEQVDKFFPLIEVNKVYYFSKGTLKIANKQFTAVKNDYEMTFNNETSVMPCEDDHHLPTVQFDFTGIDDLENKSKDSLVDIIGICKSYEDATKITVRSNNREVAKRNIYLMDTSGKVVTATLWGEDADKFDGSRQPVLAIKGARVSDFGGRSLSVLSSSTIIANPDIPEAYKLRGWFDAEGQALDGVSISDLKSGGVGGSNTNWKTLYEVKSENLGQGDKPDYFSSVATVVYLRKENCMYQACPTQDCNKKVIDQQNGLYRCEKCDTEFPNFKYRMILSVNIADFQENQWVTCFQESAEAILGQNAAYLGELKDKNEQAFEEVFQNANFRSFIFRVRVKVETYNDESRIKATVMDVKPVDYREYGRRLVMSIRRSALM
UniProt P35219: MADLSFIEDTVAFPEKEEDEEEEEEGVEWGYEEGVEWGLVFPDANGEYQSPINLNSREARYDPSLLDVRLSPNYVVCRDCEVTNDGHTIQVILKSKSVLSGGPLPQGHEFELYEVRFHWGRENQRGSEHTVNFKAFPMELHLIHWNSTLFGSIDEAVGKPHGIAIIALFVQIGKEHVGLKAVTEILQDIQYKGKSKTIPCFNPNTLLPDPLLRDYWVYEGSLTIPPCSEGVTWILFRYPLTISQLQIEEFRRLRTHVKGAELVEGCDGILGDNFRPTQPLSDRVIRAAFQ
UniProt P40937, whole entry: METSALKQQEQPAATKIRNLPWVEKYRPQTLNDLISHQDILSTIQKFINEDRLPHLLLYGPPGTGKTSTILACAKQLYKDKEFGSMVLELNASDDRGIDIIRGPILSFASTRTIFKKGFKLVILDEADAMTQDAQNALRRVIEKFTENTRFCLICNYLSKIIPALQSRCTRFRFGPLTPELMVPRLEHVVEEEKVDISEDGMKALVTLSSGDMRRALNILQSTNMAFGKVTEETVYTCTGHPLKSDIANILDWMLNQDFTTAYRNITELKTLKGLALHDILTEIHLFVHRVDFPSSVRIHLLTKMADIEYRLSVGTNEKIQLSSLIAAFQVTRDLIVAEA
UniProt P35610: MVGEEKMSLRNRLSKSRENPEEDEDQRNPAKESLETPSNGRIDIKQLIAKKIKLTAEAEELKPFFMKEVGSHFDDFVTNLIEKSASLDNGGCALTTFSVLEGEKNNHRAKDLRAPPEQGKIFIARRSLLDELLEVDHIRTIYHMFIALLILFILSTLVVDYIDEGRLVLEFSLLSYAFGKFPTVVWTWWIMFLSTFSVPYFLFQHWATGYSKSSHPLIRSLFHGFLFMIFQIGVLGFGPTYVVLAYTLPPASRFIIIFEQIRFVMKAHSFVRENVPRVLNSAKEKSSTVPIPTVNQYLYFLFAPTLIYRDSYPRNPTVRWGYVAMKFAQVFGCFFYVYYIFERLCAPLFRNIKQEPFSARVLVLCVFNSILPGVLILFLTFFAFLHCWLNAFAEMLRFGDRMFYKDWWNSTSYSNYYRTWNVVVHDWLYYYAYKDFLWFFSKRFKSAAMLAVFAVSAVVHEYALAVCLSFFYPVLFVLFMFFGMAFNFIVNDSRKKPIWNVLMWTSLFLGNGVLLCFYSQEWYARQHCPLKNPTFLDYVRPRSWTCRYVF
UniProt P48506: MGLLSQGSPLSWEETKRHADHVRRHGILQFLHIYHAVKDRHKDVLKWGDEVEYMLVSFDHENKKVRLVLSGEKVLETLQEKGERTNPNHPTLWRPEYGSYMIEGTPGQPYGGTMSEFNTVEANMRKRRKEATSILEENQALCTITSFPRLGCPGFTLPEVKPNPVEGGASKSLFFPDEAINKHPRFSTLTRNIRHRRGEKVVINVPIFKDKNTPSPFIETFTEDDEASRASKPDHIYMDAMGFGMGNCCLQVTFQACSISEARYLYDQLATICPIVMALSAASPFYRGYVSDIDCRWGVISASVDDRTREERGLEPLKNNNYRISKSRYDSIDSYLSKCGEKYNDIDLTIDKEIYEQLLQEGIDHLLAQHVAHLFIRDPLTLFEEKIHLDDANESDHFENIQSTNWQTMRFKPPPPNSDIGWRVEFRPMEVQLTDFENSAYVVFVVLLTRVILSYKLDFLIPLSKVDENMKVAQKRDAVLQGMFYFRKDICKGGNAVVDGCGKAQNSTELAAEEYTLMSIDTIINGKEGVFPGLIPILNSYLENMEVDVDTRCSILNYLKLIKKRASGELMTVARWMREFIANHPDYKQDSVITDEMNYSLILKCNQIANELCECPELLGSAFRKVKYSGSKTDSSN
UniProt P40306: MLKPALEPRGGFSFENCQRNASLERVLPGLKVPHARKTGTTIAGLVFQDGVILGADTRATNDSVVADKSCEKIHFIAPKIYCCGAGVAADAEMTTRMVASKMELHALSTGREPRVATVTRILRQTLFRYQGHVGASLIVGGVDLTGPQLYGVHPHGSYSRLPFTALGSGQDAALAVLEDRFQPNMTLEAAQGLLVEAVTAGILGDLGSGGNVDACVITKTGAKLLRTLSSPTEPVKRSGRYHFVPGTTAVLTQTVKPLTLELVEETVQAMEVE
UniProt P31939: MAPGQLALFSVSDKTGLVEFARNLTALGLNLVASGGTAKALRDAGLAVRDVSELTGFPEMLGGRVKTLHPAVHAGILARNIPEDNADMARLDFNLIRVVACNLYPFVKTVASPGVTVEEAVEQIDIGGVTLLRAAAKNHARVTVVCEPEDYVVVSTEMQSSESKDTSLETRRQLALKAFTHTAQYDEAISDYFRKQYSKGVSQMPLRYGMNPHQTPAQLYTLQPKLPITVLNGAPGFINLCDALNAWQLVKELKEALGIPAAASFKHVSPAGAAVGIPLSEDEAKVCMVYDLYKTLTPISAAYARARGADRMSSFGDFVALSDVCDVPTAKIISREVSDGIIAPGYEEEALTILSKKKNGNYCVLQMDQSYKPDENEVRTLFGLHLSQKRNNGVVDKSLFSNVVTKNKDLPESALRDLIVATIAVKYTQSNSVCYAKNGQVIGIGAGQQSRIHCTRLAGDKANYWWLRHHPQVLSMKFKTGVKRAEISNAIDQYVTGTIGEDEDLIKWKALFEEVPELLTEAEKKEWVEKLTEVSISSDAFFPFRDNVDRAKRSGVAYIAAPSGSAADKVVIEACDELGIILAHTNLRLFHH
UniProt P30405: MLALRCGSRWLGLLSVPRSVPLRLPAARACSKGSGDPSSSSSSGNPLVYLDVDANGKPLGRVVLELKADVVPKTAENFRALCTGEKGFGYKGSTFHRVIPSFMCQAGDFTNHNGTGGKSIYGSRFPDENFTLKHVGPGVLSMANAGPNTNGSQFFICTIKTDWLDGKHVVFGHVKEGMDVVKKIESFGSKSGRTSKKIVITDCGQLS
UniProt P41214: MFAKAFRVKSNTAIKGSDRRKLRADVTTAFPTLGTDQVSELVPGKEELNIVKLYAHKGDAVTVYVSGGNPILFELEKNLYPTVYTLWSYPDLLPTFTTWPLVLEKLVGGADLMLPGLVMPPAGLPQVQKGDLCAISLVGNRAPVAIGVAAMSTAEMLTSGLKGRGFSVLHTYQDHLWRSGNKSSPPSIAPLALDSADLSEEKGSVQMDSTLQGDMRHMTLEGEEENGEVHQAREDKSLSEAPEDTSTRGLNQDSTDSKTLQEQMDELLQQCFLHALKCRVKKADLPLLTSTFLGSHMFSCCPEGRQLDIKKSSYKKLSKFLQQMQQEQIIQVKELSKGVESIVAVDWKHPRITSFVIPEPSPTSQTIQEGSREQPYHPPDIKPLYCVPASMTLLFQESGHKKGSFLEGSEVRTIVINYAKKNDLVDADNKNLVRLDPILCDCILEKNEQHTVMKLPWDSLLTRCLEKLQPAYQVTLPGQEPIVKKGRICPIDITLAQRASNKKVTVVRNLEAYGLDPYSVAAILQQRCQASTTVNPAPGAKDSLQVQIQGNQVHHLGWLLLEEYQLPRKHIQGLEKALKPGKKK
UniProt P43307: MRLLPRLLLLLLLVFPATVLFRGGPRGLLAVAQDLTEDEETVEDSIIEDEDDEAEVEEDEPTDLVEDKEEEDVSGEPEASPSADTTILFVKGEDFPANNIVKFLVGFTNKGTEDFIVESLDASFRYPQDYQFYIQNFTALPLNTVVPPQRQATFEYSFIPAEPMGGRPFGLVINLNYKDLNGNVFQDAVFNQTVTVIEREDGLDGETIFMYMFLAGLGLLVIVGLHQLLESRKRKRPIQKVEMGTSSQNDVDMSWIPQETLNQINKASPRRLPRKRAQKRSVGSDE
UniProt P30043: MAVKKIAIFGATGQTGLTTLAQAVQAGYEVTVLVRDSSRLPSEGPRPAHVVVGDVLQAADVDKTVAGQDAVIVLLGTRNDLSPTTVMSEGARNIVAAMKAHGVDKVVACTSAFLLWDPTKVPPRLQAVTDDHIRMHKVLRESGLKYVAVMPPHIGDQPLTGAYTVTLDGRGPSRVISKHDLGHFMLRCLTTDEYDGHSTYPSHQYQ
UniProt P36957: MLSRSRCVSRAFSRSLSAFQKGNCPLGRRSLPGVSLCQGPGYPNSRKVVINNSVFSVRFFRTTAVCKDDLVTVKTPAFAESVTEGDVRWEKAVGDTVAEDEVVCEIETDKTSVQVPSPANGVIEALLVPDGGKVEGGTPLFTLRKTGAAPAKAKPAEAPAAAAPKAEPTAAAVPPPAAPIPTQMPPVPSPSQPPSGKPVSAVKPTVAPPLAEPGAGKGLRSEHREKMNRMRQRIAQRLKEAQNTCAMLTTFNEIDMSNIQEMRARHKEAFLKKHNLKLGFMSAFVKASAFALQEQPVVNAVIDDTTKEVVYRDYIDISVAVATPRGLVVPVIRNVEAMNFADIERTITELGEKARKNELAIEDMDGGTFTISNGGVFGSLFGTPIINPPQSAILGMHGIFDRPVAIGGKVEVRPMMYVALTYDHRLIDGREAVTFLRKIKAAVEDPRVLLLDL
UniProt P35241, whole entry: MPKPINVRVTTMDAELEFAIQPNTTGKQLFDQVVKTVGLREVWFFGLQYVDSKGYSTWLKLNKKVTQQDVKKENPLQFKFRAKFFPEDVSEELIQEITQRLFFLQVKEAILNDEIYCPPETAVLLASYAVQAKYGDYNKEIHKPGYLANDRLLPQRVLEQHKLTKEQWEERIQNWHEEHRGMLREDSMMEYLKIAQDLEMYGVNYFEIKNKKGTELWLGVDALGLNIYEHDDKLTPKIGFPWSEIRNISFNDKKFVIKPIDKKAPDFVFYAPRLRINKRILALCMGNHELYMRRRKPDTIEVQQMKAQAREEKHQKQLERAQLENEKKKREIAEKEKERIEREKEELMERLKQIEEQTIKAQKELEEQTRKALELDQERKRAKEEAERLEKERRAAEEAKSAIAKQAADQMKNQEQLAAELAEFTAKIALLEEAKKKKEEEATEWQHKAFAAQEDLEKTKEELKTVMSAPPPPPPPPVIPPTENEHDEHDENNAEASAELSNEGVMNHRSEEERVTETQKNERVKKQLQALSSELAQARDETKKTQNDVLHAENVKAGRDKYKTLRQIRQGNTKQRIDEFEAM

Compound: Nc1nc2c(ncn2[C@@H]2O[C@H](COP(=O)(O)OP(=O)(O)OP(=O)(O)O)[C@@H](O)[C@H]2O)c(=O)[nH]1 [guanosine triphosphate]
Experiment: NP40-soluble protein abundance relative to vehicle (solubility fold change) (ratio); higher = more soluble protein in presence of GTP
In short: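 Jurkat crude lysate prepared with a Dounce homogeniser was treated at eight concentrations spanning 0.1 to 10 mM, 10 min at room temperature then 3 min at 37 °C. Solubilisation with 0.8% NP40 and benzonase and ultracentrifugation preceded TMT labelling of the supernatant for LC-MS/MS. Fold change against the detergent-processed vehicle was determined per replicate from vsn-normalised intensities, across three independent experiments.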

Target	NP40-soluble protein abundance (concentration: 0.1mM)	NP40-soluble protein abundance (concentration: 0.5mM)	NP40-soluble protein abundance (concentration: 1mM)	NP40-soluble protein abundance (concentration: 2mM)	NP40-soluble protein abundance (concentration: 4mM)	NP40-soluble protein abundance (concentration: 6mM)	NP40-soluble protein abundance (concentration: 8mM)	NP40-soluble protein abundance (concentration: 10mM)
FDFT1 (UniProt P37268)	0.972 ± 0.027	0.949 ± 0.018	0.896 ± 0.032	0.91 ± 0.037	0.878 ± 0.024	0.872 ± 0.034	0.815 ± 0.039	0.824 ± 0.052
TAGLN2 (UniProt P37802)	0.929 ± 0.035	0.894 ± 0.036	0.926 ± 0.062	0.934 ± 0.038	0.898 ± 0.069	0.892 ± 0.028	0.901 ± 0.082	0.996 ± 0.055
PSMB2 (UniProt P49721)	1.04 ± 0.075	1.07 ± 0.098	1.05 ± 0.1	1.06 ± 0.15	1.07 ± 0.14	1.08 ± 0.16	1.06 ± 0.13	0.981 ± 0.15
UniProt P35813 and related entries	0.9854 ± 0.0082	0.976 ± 0.0069	0.964 ± 0.02	0.941 ± 0.031	0.922 ± 0.042	0.909 ± 0.046	0.924 ± 0.025	0.909 ± 0.025
UniProt P35611 and related entries	0.996 ± 0.029	1.018 ± 0.0043	1.01 ± 0.051	0.998 ± 0.035	0.985 ± 0.029	1 ± 0.024	1 ± 0.032	1.01 ± 0.017
UniProt P35268 and related entries	0.964 ± 0.022	0.99 ± 0.046	0.959 ± 0.037	1 ± 0.035	0.99 ± 0.088	1.02 ± 0.075	0.954 ± 0.0096	1.08 ± 0.051
SDHA (UniProt P31040)	0.985 ± 0.019	1.03 ± 0.032	0.947 ± 0.018	0.933 ± 0.028	0.91 ± 0.027	0.928 ± 0.025	0.905 ± 0.022	0.886 ± 0.041
ECHS1 (UniProt P30084)	0.937 ± 0.084	0.951 ± 0.07	0.928 ± 0.075	0.902 ± 0.06	0.91 ± 0.092	0.919 ± 0.057	0.913 ± 0.087	0.899 ± 0.067
CDC34 (UniProt P49427)	1.69 ± 0.2	1.07 ± 0.037	1.79 ± 0.077	1.15 ± 0.11	1.16 ± 0.092	1.12 ± 0.1	1.01 ± 0.078	1.06 ± 0.084
UniProt P30044 and related entries	0.913 ± 0.061	0.885 ± 0.088	0.96 ± 0.059	0.924 ± 0.098	0.95 ± 0.099	0.913 ± 0.092	0.885 ± 0.11	0.871 ± 0.098
RPA1 (UniProt P27694)	0.994 ± 0.025	1.02 ± 0.04	0.938 ± 0.025	0.946 ± 0.036	0.927 ± 0.026	0.939 ± 0.025	0.9162 ± 0.0083	0.9 ± 0.043
GDI1 (UniProt P31150)	1.04 ± 0.056	1.01 ± 0.06	0.946 ± 0.032	0.947 ± 0.072	0.94 ± 0.059	0.909 ± 0.041	0.871 ± 0.051	0.863 ± 0.088
CA8 (UniProt P35219)	1.04 ± 0.017	1.01 ± 0.035	0.914 ± 0.029	0.934 ± 0.061	0.915 ± 0.064	0.879 ± 0.048	0.879 ± 0.072	0.874 ± 0.11
UniProt P40937 and related entries	1.03 ± 0.011	1.08 ± 0.027	1.09 ± 0.029	1.14 ± 0.059	1.18 ± 0.043	1.19 ± 0.061	1.16 ± 0.055	1.18 ± 0.052
SOAT1 (UniProt P35610)	0.915 ± 0.071	0.993 ± 0.042	0.909 ± 0.071	0.947 ± 0.014	0.916 ± 0.049	0.917 ± 0.034	0.863 ± 0.088	0.905 ± 0.055
DEK (UniProt P35659)	0.895 ± 0.054	0.909 ± 0.073	1.02 ± 0.08	1 ± 0.12	1.07 ± 0.11	1.09 ± 0.11	1.17 ± 0.079	1.22 ± 0.14
GCLC (UniProt P48506)	1.01 ± 0.034	1.06 ± 0.023	0.967 ± 0.037	0.948 ± 0.068	0.912 ± 0.08	0.951 ± 0.04	0.931 ± 0.037	0.894 ± 0.081
PSMB10 (UniProt P40306)	1.1 ± 0.11	1.06 ± 0.088	1.01 ± 0.11	1.05 ± 0.15	1.06 ± 0.14	1.04 ± 0.14	1.04 ± 0.12	0.996 ± 0.11
ATIC (UniProt P31939)	0.957 ± 0.051	0.975 ± 0.043	0.92 ± 0.049	0.901 ± 0.043	0.894 ± 0.041	0.895 ± 0.038	0.885 ± 0.061	0.861 ± 0.054
PPIF (UniProt P30405)	0.881 ± 0.08	0.902 ± 0.067	0.863 ± 0.064	0.876 ± 0.078	0.853 ± 0.091	0.868 ± 0.087	0.836 ± 0.11	0.887 ± 0.079
UniProt P41214	1.04 ± 0.051	1.02 ± 0.04	1 ± 0.021	0.984 ± 0.041	1 ± 0.034	0.952 ± 0.033	0.981 ± 0.044	0.933 ± 0.069
SSR1 (UniProt P43307)	0.815 ± 0.13	0.785 ± 0.11	0.854 ± 0.13	0.879 ± 0.11	0.91 ± 0.11	0.855 ± 0.11	0.836 ± 0.14	0.921 ± 0.13
BLVRB (UniProt P30043)	1.02 ± 0.022	0.991 ± 0.023	0.9141 ± 0.0059	0.941 ± 0.035	0.956 ± 0.046	0.895 ± 0.067	0.895 ± 0.1	0.901 ± 0.1
DLST (UniProt P36957)	1.1 ± 0.12	1.21 ± 0.27	1.34 ± 0.35	1.45 ± 0.39	1.57 ± 0.45	1.55 ± 0.51	1.64 ± 0.55	1.63 ± 0.54
QARS (UniProt P47897)	1.08 ± 0.075	1.14 ± 0.14	1.08 ± 0.15	1.17 ± 0.24	1.22 ± 0.26	1.18 ± 0.28	1.17 ± 0.22	1.14 ± 0.25
UniProt P29353 and related entries	1.04 ± 0.043	1.03 ± 0.049	0.977 ± 0.09	0.978 ± 0.05	1.01 ± 0.048	0.989 ± 0.048	1.03 ± 0.059	0.944 ± 0.05
ATP6V1E1 (UniProt P36543)	0.91 ± 0.033	0.885 ± 0.022	1.02 ± 0.057	1.01 ± 0.044	1.01 ± 0.056	1.01 ± 0.056	0.933 ± 0.059	0.982 ± 0.083
RDX (UniProt P35241)	0.909 ± 0.1	0.958 ± 0.11	0.931 ± 0.11	0.88 ± 0.13	0.869 ± 0.14	0.891 ± 0.12	0.921 ± 0.11	0.91 ± 0.12
NUP153 (UniProt P49790)	1.01 ± 0.02	1.03 ± 0.028	1.03 ± 0.012	1.04 ± 0.033	1.05 ± 0.013	1.09 ± 0.022	1.14 ± 0.055	1.17 ± 0.043
MYH10 (UniProt P35580)	0.971 ± 0.046	1.05 ± 0.072	1.05 ± 0.075	1.04 ± 0.084	1.04 ± 0.086	1.05 ± 0.072	1.08 ± 0.12	1.05 ± 0.1

Already shown: an excerpt of the list.
Target	NP40-soluble protein abundance (concentration: 0.1mM)	NP40-soluble protein abundance (concentration: 0.5mM)	NP40-soluble protein abundance (concentration: 1mM)	NP40-soluble protein abundance (concentration: 2mM)	NP40-soluble protein abundance (concentration: 4mM)	NP40-soluble protein abundance (concentration: 6mM)	NP40-soluble protein abundance (concentration: 8mM)	NP40-soluble protein abundance (concentration: 10mM)
PSMB2 (UniProt P49721)	1.04 ± 0.075	1.07 ± 0.098	1.05 ± 0.1	1.06 ± 0.15	1.07 ± 0.14	1.08 ± 0.16	1.06 ± 0.13	0.981 ± 0.15
UniProt P35813 and related entries	0.9854 ± 0.0082	0.976 ± 0.0069	0.964 ± 0.02	0.941 ± 0.031	0.922 ± 0.042	0.909 ± 0.046	0.924 ± 0.025	0.909 ± 0.025
